Assay results taken from article PMC8816931.
No constants are given. Whether binding was seen depends on the method and setting. In cells and extracts the contact can be indirect. For some of these results: Binding can be weak; no strength is given.

Sequences of proteins named here, by UniProt entry; tags and fusion partners are left off. A change or cut given only in a name is not applied to a line headed by its entry. Residues count along the entry.
UniProt A2AFI6: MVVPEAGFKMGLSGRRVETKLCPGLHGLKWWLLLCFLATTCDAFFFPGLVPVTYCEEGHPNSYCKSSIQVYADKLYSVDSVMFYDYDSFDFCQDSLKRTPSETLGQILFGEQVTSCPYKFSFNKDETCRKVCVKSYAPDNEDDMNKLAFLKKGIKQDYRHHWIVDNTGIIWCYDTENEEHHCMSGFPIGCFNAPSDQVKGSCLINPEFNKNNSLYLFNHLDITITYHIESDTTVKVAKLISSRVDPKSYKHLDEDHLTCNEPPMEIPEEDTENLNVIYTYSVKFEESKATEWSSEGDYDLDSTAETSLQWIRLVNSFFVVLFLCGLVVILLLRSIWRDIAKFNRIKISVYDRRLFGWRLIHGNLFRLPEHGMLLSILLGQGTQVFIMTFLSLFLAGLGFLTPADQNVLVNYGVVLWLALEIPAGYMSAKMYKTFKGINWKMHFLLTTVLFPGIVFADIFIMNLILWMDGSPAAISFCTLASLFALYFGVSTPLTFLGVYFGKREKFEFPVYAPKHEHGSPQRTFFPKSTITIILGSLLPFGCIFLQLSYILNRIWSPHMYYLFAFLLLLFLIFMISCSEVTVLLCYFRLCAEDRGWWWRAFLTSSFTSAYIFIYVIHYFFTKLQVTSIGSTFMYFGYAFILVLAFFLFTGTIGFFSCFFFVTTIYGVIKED
UniProt O08586: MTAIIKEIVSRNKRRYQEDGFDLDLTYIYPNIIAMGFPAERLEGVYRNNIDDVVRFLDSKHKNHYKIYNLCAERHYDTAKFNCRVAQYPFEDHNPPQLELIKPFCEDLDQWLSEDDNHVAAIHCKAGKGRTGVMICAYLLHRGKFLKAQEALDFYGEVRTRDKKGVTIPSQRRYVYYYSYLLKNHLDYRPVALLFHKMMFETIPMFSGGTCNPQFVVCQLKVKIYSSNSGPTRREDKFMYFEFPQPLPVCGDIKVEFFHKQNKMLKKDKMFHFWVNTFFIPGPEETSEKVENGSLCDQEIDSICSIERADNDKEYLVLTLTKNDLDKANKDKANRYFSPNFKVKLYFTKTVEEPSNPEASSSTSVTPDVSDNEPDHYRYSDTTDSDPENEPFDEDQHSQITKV
UniProt Q6QI06: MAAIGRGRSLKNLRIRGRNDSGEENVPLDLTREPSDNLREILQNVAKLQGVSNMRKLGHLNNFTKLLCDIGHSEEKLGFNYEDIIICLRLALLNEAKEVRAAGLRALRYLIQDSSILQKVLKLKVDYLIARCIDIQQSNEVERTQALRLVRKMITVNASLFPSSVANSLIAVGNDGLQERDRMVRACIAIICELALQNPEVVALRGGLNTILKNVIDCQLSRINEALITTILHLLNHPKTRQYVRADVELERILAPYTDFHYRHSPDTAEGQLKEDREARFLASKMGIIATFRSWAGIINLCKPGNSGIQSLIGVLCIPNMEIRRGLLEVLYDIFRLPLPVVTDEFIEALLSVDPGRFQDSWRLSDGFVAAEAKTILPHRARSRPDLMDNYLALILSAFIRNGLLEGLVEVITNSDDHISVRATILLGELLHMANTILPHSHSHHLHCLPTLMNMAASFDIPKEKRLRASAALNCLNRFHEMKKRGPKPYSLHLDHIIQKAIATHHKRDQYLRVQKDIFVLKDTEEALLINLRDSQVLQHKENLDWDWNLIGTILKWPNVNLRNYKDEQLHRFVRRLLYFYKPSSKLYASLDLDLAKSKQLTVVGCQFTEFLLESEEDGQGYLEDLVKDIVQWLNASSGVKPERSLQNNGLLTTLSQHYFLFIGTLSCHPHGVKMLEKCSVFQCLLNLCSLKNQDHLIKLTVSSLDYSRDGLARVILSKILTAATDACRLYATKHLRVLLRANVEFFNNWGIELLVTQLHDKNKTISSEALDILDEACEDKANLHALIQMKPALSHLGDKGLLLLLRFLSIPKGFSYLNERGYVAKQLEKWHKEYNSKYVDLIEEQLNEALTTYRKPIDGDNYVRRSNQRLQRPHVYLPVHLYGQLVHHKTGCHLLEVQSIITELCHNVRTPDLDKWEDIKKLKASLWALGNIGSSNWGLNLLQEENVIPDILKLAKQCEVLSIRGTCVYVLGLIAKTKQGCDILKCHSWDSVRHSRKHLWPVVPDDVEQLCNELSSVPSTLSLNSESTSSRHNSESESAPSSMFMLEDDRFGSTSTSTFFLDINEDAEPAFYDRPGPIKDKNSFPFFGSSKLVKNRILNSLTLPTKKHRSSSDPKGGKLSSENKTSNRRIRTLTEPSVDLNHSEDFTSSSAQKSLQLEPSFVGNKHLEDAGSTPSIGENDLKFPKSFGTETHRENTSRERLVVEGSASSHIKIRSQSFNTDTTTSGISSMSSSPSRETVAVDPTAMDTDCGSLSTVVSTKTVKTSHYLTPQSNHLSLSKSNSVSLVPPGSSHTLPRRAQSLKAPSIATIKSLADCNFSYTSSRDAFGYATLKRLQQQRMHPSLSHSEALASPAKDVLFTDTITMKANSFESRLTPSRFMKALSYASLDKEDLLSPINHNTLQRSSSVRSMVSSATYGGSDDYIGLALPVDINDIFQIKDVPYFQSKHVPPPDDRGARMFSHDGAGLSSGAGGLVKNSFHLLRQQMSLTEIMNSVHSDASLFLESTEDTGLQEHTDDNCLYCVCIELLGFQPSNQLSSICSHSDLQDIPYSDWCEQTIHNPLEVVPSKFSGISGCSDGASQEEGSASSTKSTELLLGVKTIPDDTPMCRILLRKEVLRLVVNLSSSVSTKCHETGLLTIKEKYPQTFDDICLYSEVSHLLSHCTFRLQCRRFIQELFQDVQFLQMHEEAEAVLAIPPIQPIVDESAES
UniProt O88516, residues 33-592: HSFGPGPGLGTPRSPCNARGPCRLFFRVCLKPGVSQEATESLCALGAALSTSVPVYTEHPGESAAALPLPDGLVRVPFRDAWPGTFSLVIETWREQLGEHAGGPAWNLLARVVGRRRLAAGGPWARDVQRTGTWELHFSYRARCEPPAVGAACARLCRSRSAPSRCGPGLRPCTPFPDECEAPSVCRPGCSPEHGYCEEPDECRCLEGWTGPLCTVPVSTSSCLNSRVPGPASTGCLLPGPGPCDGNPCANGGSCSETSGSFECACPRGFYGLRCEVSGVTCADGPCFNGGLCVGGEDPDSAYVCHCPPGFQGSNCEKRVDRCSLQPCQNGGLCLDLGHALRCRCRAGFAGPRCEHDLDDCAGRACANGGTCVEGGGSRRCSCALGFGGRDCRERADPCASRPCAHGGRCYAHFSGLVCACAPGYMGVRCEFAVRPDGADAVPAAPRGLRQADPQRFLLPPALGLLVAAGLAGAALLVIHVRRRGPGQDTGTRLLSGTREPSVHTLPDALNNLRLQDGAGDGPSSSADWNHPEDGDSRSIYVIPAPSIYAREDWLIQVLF
UniProt O35516, residues 26-2473: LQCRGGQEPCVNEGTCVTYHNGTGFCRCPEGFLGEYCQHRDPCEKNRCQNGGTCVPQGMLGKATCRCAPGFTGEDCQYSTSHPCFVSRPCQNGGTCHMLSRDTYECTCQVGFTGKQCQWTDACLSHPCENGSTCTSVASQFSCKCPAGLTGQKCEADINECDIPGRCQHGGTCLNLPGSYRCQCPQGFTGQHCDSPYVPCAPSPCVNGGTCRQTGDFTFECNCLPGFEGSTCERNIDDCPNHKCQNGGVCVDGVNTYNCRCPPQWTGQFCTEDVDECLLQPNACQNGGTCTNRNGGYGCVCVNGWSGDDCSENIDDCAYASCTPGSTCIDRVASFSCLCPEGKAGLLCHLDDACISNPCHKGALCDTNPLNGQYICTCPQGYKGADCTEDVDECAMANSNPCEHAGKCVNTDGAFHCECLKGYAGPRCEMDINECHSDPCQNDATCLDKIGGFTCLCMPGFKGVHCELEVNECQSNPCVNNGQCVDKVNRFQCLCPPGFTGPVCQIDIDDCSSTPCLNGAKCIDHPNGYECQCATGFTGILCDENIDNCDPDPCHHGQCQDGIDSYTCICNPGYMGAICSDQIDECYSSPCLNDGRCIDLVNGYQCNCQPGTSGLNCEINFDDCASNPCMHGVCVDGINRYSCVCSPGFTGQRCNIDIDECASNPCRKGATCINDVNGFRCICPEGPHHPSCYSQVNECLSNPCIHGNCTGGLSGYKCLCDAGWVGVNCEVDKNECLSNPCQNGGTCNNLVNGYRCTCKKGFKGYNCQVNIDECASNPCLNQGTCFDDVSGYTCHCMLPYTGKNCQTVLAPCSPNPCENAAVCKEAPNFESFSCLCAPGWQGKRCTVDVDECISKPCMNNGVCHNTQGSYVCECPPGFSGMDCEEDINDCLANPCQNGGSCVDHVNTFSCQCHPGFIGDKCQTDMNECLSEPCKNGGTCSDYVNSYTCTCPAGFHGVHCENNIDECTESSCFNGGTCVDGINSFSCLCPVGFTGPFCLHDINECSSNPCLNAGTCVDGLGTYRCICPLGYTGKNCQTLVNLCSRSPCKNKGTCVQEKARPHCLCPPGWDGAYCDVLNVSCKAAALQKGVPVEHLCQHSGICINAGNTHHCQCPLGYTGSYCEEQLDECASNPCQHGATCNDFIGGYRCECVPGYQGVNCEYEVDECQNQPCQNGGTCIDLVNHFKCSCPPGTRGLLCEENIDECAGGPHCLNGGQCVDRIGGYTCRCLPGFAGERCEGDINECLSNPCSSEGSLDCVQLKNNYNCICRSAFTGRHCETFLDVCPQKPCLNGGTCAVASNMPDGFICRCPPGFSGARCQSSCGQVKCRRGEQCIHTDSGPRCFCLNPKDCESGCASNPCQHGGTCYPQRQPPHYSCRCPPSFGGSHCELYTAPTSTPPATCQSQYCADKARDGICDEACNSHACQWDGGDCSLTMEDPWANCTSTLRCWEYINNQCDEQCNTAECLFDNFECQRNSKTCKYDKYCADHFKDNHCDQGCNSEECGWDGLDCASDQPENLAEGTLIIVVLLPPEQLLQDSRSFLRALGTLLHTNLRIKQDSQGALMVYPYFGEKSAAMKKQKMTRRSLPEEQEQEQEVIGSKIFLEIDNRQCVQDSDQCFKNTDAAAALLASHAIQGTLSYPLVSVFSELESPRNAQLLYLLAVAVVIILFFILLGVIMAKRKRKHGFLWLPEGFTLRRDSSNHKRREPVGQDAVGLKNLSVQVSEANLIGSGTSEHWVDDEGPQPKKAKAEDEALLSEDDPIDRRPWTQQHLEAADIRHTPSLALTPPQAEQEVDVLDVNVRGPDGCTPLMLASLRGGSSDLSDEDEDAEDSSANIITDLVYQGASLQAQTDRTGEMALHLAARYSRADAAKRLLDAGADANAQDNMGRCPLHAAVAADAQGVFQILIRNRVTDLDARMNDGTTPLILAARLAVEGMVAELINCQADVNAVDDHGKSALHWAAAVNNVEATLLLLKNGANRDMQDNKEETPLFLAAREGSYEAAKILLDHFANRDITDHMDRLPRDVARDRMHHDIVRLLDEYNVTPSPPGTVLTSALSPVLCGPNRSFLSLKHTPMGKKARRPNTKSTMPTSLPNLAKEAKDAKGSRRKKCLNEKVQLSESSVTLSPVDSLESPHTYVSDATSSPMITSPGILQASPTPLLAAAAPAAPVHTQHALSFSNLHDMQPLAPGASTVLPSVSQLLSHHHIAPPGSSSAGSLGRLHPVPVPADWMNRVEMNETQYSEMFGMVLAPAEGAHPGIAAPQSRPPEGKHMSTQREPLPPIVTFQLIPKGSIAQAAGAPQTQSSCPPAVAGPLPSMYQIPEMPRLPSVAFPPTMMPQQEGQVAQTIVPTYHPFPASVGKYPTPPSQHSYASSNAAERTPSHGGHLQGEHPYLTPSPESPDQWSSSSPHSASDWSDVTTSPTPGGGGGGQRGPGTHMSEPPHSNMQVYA

How the values were obtained:
Assay in all cases: co-IP; 2.5 ug rabbit antibody coupled to protein A/G beads, lysate of 400 mouse oocytes, IP buffer (20 mM Tris-HCl pH 8.0, 10 mM EDTA, 1 mM EGTA, 150 mM NaCl, 0.05% Triton X-100, 0.05% Nonidet P-40), overnight at 4 °C, three washes, SDS-PAGE and western blot; rabbit IgG as control
Gm364 (mouse) = Gm364 (mouse) (UniProt A2AFI6)
[1] = target: PTEN (mouse (endogenous in oocytes)) (UniProt O08586)
[2] = target: p-RICTOR (mouse (endogenous in oocytes)) (UniProt Q6QI06)

binding (Gm364 (mouse)) | binding [1] | binding [2] | Substance
binds | – | – | DLL3 (from UniProt O88516 33-592) (ligand)
– | no binding | no binding | Gm364 (from UniProt A2AFI6)
binds | – | – | Notch2 (from UniProt O35516 26-2473) (receptor)
